The subject of series [1] is chlorinated ethenes (PCE, TCE) in groundwater. Description: Biostimulation pilot test, IR Site 40, Seal Beach (Example 4). The protocol:
A biostimulation pilot-test program for in situ anaerobic bioremediation of chlorinated ethenes in groundwater was conducted at Installation Restoration (IR) Program Site 40, Naval Weapons Station Seal Beach, Calif. IR Site 40 includes a concrete pit in a locomotive shop building and a gravel area north of and adjacent to the building. Oil and solvents spilled during locomotive maintenance collected in the pit and discharged to the gravel area via a drainpipe (FIG. 11). Groundwater was contaminated with chlorinated solvents, primarily PCE and trichloroethene (TCE). The plume extends over 100 meters (m) downgradient of the source area and is generally limited in extent to approximately 20 m below ground surface. The groundwater gradient is relatively flat and is influenced by tidal fluctuations. The net gradient direction is southeasterly. The Seal Beach National Wildlife Refuge lies downgradient of the site.
The tests were conducted in the area interpreted to have the highest PCE concentrations in groundwater. The tests were conducted over an 8-month period from August 2001 through mid-March 2002. Approximately 210,000 liters (55,500 gallons) of 3 percent sodium lactate solution was injected. A direct injection system was selected over recirculation to avoid reinjection of untreated water into the test cell. […]
Effects were monitored in seven wells in the pilot-test area. […] Weekly groundwater samples were collected during and analyzed on-site using field test kits for sulfate, ferrous iron, alkalinity, chemical oxygen demand (COD) (Hach, Loveland, Colo.), nitrate, and carbon dioxide (CHEMetrics, Calverton, Va.) and direct reading instrumentation for pH, temperature, conductivity, oxidation-reduction potential, and dissolved oxygen (YSI, Yellow Springs, Ohio). Monthly groundwater samples were analyzed off-site for volatile organic compounds, alkalinity, COD, anions, cations, total dissolved solids (Columbia Analytical Services, Kelso, Wash.), and dissolved gases (Performance Analytical, Simi Valley, Calif.). […]

Series [2] relates to PCE/TCE plume in ground water. Description: Sodium lactate injection pilot test, Tennessee Air National Guard Site, Memphis (Example 3). The source says:
Site Background. A site-wide Remedial Investigation (RI) identified a chlorinated solvent plume in a sandy aquifer approximately 35 to 60 feet (10.7 to 18.3 m) below ground surface at the 164th Airlift Wing at the Tennessee Air National Guard Site, Memphis, Tenn. The plume area targeted for treatment was over 2 acres (0.81 hectares). This unconfined saturated interval is overlain by an inorganic loess vadose zone and is separated from the deeper regional aquifer by a clay unit. PCE concentrations ranged from 5 to 1,000 μg/L in the target area, while TCE ranged from 100 to greater than 15,000 μg/L in the injection/monitoring wells. […] A pilot test of a sodium lactate injection system to enhance natural reductive dechlorination in the groundwater was approved by the Tennessee Department of Environment and Conservation, the Memphis and Shelby County Health Department, and the Shelby County Ground Water Control Board.
System Design. A three-dimensional model to simulate groundwater flow was developed using the MODFLOW simulator (U.S. Geological Survey). Once calibrated, model simulations were used to determine the optimal injection well locations, as well as the rate and duration of injection. Based on the results of other sodium lactate injection sites, a period of 60 days between injections was assumed. The optimal configuration was determined to be a 9-well injection system at an injection rate of 10 gallons per minute (gpm; 37.8 liters/minute) for 5 days.
Potable water was mixed with 60% sodium lactate to create a 1% solution. An existing 8-inch (20.3-cm) water line was tapped and connected to the distribution control header via a 4-inch (10.2-cm) line, which was housed in a portable 12-ft×14-ft (3.6-m×4.3-m) building. A double-check valve assembly was installed on the 4-inch (10.2-cm)water line to prevent back-siphoning of the injection solution into the 8-inch (20.3-cm) potable water line. Following a mixing zone with the potable water, the resulting 1% solution was delivered to the nine injection wells. […]

A value given as a limit tells only on which side of the number the result lay.

Consider `CC(O)C(=O)[O-].[Na+]` (stereo not drawn) [sodium lactate], for which the sulfate result in series [1] (after one to three months, depending on distance from the injection well) was “reduced to below detection limits”. Further, the “groundwater pH (lowest)” value in series [1] (dropped from approximately 7.5 during lactate fermentation) was “below 6”. Further, the oxidation-reduction potential in series [1] (dropped from approximately 150) is given as about −300 millivolts. In series [2] (first sampling event about 6 weeks after injection, 1 monitoring well), the “COD level (highest)” value is on record as ≤ 4,000 mg/L. Besides, the COD maximum concentration in series [2] (monitoring well 03-010MW, during the monitoring period) is listed as 319 mg/L. In addition, the COD level in series [2] (wells IW-1 and IW-2) is reported as > 2,000 mg/L.

For the origin of these results see patent US7449114B2, “Halogenated solvent remediation” (SRP Technologies, Inc., priority 2000, dated 2008).
